From paper PMC5233801

What was measured:
[1] = target: T1, SPL3 fused to GAL4 DNA-binding domain (Arabidopsis thaliana) (UniProt P93015); experiment: two-hybrid; yeast AH109; SPLs fused to GAL4 DNA-binding domain (pGBKT7), partners fused to GAL4 activation domain (pGADT7); SD-Leu-Trp-His or SD-Ade-Leu-Trp-His plates with 10 mM (SPL2, SPL3) or 15 mM (SPL9) 3-amino-1,2,4-triazole, 3-4 days at 30 °C
T1 sequence: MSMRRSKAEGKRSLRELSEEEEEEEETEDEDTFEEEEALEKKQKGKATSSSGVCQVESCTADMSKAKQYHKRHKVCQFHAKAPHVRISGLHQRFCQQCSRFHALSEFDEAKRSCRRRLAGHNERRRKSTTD

[2] = target: T2, SQUAMOSA PROMOTER BINDING PROTEIN-LIKE9 (SPL9) fused to GAL4 DNA-binding domain (Arabidopsis thaliana) (UniProt Q700W2); experiment: as above
T2 sequence: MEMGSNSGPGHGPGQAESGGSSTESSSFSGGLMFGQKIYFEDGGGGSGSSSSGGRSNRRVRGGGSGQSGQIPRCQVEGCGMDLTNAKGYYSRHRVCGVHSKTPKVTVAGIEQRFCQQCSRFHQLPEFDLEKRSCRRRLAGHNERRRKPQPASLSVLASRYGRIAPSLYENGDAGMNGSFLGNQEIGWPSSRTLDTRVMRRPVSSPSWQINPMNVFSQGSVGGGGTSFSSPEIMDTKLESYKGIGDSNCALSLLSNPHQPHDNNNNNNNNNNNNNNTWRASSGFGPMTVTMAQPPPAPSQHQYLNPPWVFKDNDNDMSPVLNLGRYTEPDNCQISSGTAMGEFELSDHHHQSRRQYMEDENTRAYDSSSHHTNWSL

[3] = target: T3, Recombinant HIS-SPL9 protein (Arabidopsis thaliana) (UniProt Q700W2); experiment: pull-down; 80 μg recombinant HIS-SPL9 mixed with total tobacco leaf proteins containing JAZ3δN-HA or JAZ3δC-HA in 1 ml; HIS-SPL9 bound to Ni-NTA resin, 1 h at 4 °C, eluted with imidazole; anti-HA immunoblot; only the target purified
T3 sequence: T2 sequence

[4] = target: T4, SPL2 fused to GAL4 DNA-binding domain (Arabidopsis thaliana) (UniProt Q9S840); experiment: two-hybrid; yeast AH109; SPLs fused to GAL4 DNA-binding domain (pGBKT7), partners fused to GAL4 activation domain (pGADT7); SD-Leu-Trp-His or SD-Ade-Leu-Trp-His plates with 10 mM (SPL2, SPL3) or 15 mM (SPL9) 3-amino-1,2,4-triazole, 3-4 days at 30 °C
T4 sequence: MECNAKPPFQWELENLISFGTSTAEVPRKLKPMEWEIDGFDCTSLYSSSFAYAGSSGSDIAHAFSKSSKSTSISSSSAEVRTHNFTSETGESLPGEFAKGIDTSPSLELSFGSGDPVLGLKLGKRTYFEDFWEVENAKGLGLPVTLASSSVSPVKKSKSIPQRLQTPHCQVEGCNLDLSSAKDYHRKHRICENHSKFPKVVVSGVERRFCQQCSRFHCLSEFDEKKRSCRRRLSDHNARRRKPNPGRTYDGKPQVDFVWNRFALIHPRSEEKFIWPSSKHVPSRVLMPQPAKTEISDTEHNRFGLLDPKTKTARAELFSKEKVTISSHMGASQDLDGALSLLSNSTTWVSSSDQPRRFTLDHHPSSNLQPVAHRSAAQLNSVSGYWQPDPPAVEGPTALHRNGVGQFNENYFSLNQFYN

binding [1]	binding [2]	Substance	further results
no binding	binds	JAZ6 in pGADT7 (Arabidopsis thaliana)	
no binding		JAZ2 in pGADT7 (Arabidopsis thaliana)	
no binding	binds	JAZ1 in pGADT7 (Arabidopsis thaliana)	binding [4]: binds

Second part, the substance before the results:

Substance	binding [1]	binding [2]	further results
JAZ12 in pGADT7 (Arabidopsis thaliana)	no binding		
JAZ3δN (JAZ3 without the ZIM domain-containing N-terminal) fused to GAL4 activation domain (Arabidopsis thaliana) (domain or fragment)		no binding	
JAZ3δN-HA (Arabidopsis thaliana) (domain or fragment)			binding [3]: no binding
JAZ3δC (JAZ3 without the Jas motif-containing C-terminal) fused to GAL4 activation domain (Arabidopsis thaliana) (domain or fragment)		binds	
JAZ3δC-HA (Arabidopsis thaliana) (domain or fragment)			binding [3]: binds

No constants are given. Whether binding was seen depends on the method and setting. For some assays here: Binding calls can cover weak binding; strength is not graded here. Sequences can lack the tags named with a protein. For some assays here: In cells and extracts the contact can be indirect.
